Earlier results in patent publication US6395721B1, “Low potency unpreserved sterile topical corticosteroid compositions for dermatitis” (priority 2000, dated 2002).
At least one compound was matched to its structure with a doubt left.

Tested on: skin of human volunteers
Set-up: key: I: Group 1 is the most potent; potency descends with each group to Group VII; III: potency descends with each group to Group VII; IV: potency descends with each group to Group VII; potency descends with each group to Group VII; potency descends with each group to Group VII; Group VII, which is least potent
Details: no significant difference of agents within any given group

Compound | Ranking of Topical steroids for Psoriasis (potency group)
C[C@@H]1C[C@H]2[C@@H]3CCC4=CC(=O)C=C[C@]4(C)[C@@]3(F)[C@@H](O)C[C@]2(C)[C@@]1(O)C(=O)CO [dexamethasone] | VII.
C[C@H]1C[C@@H]2[C@H]([C@@H](O)C[C@@]3(C)[C@H]2CC[C@]3(O)C(=O)CO)[C@@]2(C)C=CC(=O)C=C12 [methyl prednisolone] | VII.
